Measurements published in patent EP1321467A2, “High affinity inhibitors for target validation and uses thereof” (Princeton University, priority 1999, dated 2000).
For some of these results: At least one compound was matched to its structure with a doubt left. Some entries share one result that the patent states for a list of compounds.

What was measured:
[1] = target: T1, GST-XD4(V323A, I338A) (Rous sarcoma virus subgroup A, UniProt P00524, DEL77-225/I338A/V323A); test: Inhibition of RR-Src phosphorylation by ATP analogs; assay type: biochemical; conditions: 100 µM analog, 10 µM [γ-32P] ATP
T1 construct: double alanine mutant of the v-Src catalytic domain, (the XD4 fragment) were made as glutathione S-transferase (GST) fusion proteins (GST-XD4); made in house; host or cells: E. coli (DH5a), pGEX-KT

[2] = target: T2, I338G v-Src (Rous sarcoma virus subgroup A, UniProt P00524, DEL77-225/I338G); assay type: biochemical
T2 construct: catalytic domain of the target kinase, I338G v-Src, which was expressed in bacteria and purified as a glutathione-S-transferase (GST) fusion protein; made in house; host or cells: E. coli DH5a, pGEX-KT

[3] = tested on: I338G v-Src; assay type: biochemical; conditions: in vitro
[4] = tested on: wild-type cells; test: Yeast growth; assay type: cell-based, Saccharomyces cerevisiae; conditions: below 50,000 nM
[5] = tested on: wild-type cells; test: Genome-wide transcription, oligonucleotide microarray; assay type: cell-based, Saccharomyces cerevisiae; conditions: 500 nM, 120 minutes
Experimental: Changes were deemed significant if they were greater than or equal to 2-fold or if the transcript changed present/absent status (as indicated by Affymetrix software) in the following comparisons: for non-specific drug effects: CDC28 + 1 -NM-PP1 vs CDC28: for cdc28-as1 effects: cdc28-as1 vs. CDC28.
Next, the effects of the inhibitor 1-NM-PP1 on cell growth and morphology were analyzed.

CC(C)(C)n1nc(Cc2cccc3ccccc23)c2c(N)ncnc21 [Compound 11]
inhibition of GST-XD4(V323A, I338A) catalyzed phosphorylation of RR-Src [1]: almost as well as the wild-type kinase, GST-XD4, is inhibited by its natural substrate ATP

CC(C)(C)n1nc(-c2ccccc2)c2c(NCC3CCCC3)ncnc21 [Compound 4b, 4-cyclopentylmethylamino-1-tert-butyl-3-phenylpyrazolo[3,4-d]pyrimidine]
inhibition of I338G v-Src, in words [2]: only poor to moderate inhibition of the engineered v-Src

CC(C)(C)n1nc(-c2ccccc2)c2c(NCc3ccccc3)ncnc21 [Compound 4e, 4-benzylamino-1-tert-butyl-3-phenylpyrazolo[3,4-d]pyrimidine]
inhibition of I338G v-Src, in words [2]: only poor to moderate inhibition of the engineered v-Src

CC(C)(C)n1nc(-c2ccccc2)c2c(NCc3ccco3)ncnc21 [Compound 4d, 4-2'-furylmethylamino-1-tert-butyl-3-phenylpyrazolo[3,4-d]pyrimidine]
inhibition of I338G v-Src, in words [2]: only poor to moderate inhibition of the engineered v-Src

CC(C)(C)n1nc(Cc2cccc3ccccc23)c2c(N)ncnc21 [Compound 6h, 4-amino-1-(tert-butyl)-3-(1'-naphthylmethyl)pyrazolo[3,4-d]pyrimidine]
selectivity for I338G v-Src with respect to wild type Fyn [3]: > 100 fold
proliferation of wild-type cells [4]: unaffected
transcripts changed greater than two-fold [5]: three
